We go through 1 substance from PMC13280575.

Protein sequences, listed by entry. Tags and fused reporters are not part of them. Lines headed by an entry give the natural chain unless they say otherwise; changes in a name come on top. Residues count along the entry.
UniProt P14859: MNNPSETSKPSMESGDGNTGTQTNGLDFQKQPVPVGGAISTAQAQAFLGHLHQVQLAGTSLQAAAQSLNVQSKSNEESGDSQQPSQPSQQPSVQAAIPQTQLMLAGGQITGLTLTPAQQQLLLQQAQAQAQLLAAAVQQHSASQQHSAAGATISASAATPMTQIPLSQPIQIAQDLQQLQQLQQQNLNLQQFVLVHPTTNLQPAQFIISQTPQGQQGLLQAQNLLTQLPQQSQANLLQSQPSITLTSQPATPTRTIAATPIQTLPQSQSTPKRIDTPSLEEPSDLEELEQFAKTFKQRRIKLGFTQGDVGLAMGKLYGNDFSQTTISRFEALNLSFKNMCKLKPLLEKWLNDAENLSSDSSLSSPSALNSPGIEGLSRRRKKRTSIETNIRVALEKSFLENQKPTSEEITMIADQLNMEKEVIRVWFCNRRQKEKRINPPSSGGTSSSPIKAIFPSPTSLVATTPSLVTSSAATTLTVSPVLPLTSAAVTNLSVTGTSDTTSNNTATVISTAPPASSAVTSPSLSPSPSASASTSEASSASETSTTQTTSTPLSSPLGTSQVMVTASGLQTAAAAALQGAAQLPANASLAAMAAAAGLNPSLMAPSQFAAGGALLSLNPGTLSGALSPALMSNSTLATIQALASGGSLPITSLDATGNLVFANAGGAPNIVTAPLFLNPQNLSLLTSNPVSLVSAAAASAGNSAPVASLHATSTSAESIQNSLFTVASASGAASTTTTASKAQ
UniProt P38398, residues 1-400: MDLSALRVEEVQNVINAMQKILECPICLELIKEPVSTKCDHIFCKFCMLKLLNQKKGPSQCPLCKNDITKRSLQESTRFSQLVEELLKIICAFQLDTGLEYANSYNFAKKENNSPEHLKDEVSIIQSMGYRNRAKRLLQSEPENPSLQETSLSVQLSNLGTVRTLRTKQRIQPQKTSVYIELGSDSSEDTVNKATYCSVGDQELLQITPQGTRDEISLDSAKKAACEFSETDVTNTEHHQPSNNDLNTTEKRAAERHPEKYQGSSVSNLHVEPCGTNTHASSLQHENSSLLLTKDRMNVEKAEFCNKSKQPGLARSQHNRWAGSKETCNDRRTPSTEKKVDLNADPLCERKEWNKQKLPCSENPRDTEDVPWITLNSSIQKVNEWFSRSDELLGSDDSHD

No constants are given. Whether binding was seen depends on the method and setting. In cells and extracts the contact can be indirect. Binding calls can cover weak binding; strength is not graded here.

For this experiment, the target named is FLAG-POU domain of POU2F1(OCT-1), in vitro translated (human) (UniProt P14859). As to the kind of experiment: pull-down; in vitro translated FLAG-POU on anti-FLAG M2 agarose beads, alone or first with in vitro translated (myc)6-BRCA1 fragment (1 h, 4 °C), then [35S]-labelled (myc)6-PER2 (2 h); autoradiography.

In the case of “(myc)6-BRCA1 (1–400), in vitro translated (from UniProt P38398 1-400) (domain or fragment)”, the binding entry is recorded as “binds”.
